In this assay the target is α1H (CaV 3.2) (Homo sapiens, UniProt O95180). Put plainly: T-type calcium channel block, whole cell patch clamp. The settings on record: read-out: T-type Calcium Channel Block α1H (CaV 3.2) IC50; HEK cells, mainly non-inactivated protocol; values above 10,000 nM represented as 10000. On the procedure: T-type calcium channel blocking activity was assayed in human embryonic kidney cells, HEK 293 (Invitrogen), stably transfected with the T-type calcium channel subunits. Briefly, cells were cultured in Dulbecco's modified eagle medium (DMEM) supplemented with 10% fetal bovine serum, 200 U/ml penicillin, and 0.2 mg/mL streptomycin at 37° C. with 5% CO2. At 85% confluency, cells were split with 0.25% trypsin/1 mM EDTA and plated at 10% confluency on glass coverslips. At 12 hours, the medium was replaced, and the cells stably transfected using a standard calcium phosphate protocol and the appropriate calcium channel cDNA's. Fresh DMEM was supplied, and the cells transferred to 28° C./5% CO2. Cells were incubated for 1 to 2 days prior to whole cell recording.
Standard patch-clamp techniques were employed to identify blockers of T-type currents. Briefly, previously described HEK cell lines stably expressing human α1G, α1H and α1I T-type channels were used for all the recordings (passage #: 4-20, 37° C., 5% CO2). […] Data were analyzed using Clampfit (Axon Instruments) and SigmaPlot 4.0 (Jandel Scientific). […]
Test compounds were dissolved in external solution, 0.1-0.01% DMSO. […] In Table 4, empty cells indicate that inhibition by the compound was not detected.
For orientation: Patch clamp records ionic current or voltage across a cell membrane.

The chains behind the UniProt entries cited, without tags or fusion partners.
UniProt O95180, whole entry: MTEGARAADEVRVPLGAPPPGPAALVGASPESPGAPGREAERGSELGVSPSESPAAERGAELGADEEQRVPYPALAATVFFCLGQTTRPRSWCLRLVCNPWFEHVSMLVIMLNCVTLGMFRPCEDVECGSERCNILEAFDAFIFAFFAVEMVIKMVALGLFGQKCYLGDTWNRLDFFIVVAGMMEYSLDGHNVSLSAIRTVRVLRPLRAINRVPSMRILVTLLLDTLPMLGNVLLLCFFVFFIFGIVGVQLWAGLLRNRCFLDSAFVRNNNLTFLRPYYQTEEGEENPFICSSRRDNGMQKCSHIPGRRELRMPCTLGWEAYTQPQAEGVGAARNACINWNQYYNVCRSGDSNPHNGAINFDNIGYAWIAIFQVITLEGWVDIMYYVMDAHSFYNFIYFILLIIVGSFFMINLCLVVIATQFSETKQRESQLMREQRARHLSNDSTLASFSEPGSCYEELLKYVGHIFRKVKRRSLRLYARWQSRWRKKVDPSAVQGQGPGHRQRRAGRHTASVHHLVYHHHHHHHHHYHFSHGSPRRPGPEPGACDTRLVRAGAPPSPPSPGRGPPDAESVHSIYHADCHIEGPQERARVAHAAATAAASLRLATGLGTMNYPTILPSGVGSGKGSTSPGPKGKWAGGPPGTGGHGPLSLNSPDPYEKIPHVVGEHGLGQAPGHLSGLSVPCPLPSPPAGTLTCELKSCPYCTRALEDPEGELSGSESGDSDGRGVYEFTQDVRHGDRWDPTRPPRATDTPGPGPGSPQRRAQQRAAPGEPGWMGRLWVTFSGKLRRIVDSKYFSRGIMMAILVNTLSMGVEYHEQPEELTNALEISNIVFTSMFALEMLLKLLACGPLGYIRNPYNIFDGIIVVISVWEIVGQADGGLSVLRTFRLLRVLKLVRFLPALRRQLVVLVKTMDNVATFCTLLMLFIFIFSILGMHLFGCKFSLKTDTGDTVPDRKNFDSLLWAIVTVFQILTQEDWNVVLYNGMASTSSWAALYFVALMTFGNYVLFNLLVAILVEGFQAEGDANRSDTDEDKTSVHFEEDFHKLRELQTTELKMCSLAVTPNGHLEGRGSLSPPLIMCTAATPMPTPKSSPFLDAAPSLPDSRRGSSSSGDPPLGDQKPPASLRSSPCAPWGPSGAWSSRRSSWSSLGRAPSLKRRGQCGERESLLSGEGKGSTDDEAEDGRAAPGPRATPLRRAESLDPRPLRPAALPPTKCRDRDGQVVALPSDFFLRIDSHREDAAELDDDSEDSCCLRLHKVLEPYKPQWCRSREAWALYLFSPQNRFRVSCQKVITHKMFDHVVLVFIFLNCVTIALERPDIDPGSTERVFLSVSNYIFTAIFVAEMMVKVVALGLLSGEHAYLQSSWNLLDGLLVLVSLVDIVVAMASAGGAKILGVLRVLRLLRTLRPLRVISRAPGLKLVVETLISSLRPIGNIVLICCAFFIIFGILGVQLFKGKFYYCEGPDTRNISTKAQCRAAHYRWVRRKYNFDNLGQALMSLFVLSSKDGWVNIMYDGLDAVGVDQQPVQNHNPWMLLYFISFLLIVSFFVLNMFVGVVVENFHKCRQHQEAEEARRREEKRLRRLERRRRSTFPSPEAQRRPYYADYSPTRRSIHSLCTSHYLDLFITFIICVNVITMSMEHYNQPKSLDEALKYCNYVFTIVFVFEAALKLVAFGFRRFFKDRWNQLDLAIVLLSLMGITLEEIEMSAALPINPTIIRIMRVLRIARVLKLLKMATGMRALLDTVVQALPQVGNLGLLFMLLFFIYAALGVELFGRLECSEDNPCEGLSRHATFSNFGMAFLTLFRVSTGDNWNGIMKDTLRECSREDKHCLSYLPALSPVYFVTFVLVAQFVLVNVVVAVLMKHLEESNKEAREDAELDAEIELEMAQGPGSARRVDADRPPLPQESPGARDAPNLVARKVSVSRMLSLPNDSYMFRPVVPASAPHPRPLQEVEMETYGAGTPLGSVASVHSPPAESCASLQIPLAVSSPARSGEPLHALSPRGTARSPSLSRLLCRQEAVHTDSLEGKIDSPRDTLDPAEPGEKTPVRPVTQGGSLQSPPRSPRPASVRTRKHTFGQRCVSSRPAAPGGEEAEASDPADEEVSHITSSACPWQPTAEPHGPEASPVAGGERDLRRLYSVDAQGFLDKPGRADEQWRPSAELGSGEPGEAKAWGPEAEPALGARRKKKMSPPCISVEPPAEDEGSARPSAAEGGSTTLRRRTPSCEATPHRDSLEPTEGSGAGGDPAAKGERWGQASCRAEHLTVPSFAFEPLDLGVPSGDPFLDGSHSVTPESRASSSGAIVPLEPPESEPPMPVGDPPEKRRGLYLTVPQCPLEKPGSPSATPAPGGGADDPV

The structures given here were assigned with low confidence; some may be wrong.

From patent US20120220564A1, “SELECTIVE CALCIUM CHANNEL MODULATORS” (Zalicus Pharmaceuticals Ltd., priority 2009, published 2012) come the findings set out here.

`O=C(NCC1CCN(C(=O)[C@@H]2CCCCN2)CC1)Nc1cc(C(F)(F)F)cc(C(F)(F)F)c1`: the IC50 turned out to be 1.11 µM.

The term IC50 denotes the concentration that inhibits the measured activity by half.
